Results are given in words; binding and its absence hold for the method and conditions named. For some assays here: Binding calls can cover weak binding; strength is not graded here.
Assays:
Test in all cases: two-hybrid; yeast two-hybrid of fragments and mutants: PKC-3 fragments with full length SLD-2; SLD-2 fragments and mutants with PKC-3 (1–219); scored +/-
SLD-2 8D (C. elegans) = biological target: SLD-2 8D (C. elegans)
[1] = biological target: SLD-2, full length (C. elegans) (UniProt O44761)
SLD-2 8A (C. elegans) = biological target: SLD-2 8A (C. elegans)
SLD-2 EDDD (C. elegans) = biological target: SLD-2 EDDD (C. elegans)

binding (SLD-2 8D (C. elegans))	binding [1]	binding (SLD-2 8A (C. elegans))	binding (SLD-2 EDDD (C. elegans))	Binder
binds	binds	binds	no binding	PKC-3 (1–219) (domain or fragment, UniProt Q19266 1-219) MSSPTSLEEDGDIKLKTRFQGQVVVLYARPPLILDDFFALLKDACKQHKKQDITVKWIDEDGDPISIDSQMELDEAVRCLNSSQEAELNIHVFVGKPELPGLPCQGEDKTVYRRGARRWKKIYLYNGHRFQAKRLNRRIQCFICHDYIWGIGRQGFRCVDCRLCVHKKCHRHVRTHCGQALQGPNIIPMAPASGSLKGARSNTSSSTTRSGGGIDNGAF
	binds			PKC-3 region 94–184 (domain or fragment, UniProt Q19266 94-184) VGKPELPGLPCQGEDKTVYRRGARRWKKIYLYNGHRFQAKRLNRRIQCFICHDYIWGIGRQGFRCVDCRLCVHKKCHRHVRTHCGQALQGP
